Assays:
HT29 cell line = experiment: Photocytotoxicity (PDT), MTT assay; assay type: cell-based
Experimental: (§1) Cell lines and culture conditions: A549, HT29, MCF-7, MDA-MB-231 cell lines were maintained in RPMI1640 supplemented with fetal bovine serum (10%) and penicillin-streptomycin solution (1%), and WI38 cells were maintained in DMEM supplemented with fetal bovine serum (10%) and penicillin-streptomycin solution (1%). Approximately 1×10^4 (for A549, HT29, MCF-7, MDA-MB-231) or 1.5×10^4 (for WI38) cells per well were seeded in 96-well plate and incubated overnight light at 37° C. in a humidified atmosphere with 5% CO2.
(§2) Photocytotoxicity: Cells were incubated with different concentrations of photosensitive drug for 1 h in the dark, then the medium in the well was sucked by a syringe, and washed by PBS. Then a solution of new medium was added, and illuminated by light. After irradiation, the cells were incubated under dark at 37° C. for another 24 h, and the cell viabilities were determined by MTT assay.

A549 cell line = experiment: Photocytotoxicity (PDT), MTT assay; assay type: cell-based
Experimental: as §1, §2

## CCN(CC)c1ccc2nc3c(cc(N)c4nc(C)ccc43)[s+]c2c1 [Compound 8, 5-amino-9-(diethylamino)-3-methylpyrido[3,2-a]phenothiazin-7-ium chloride]
HT29 cell line
  Ratio of DK/PDT: 21.9
A549 cell line
  Ratio of DK/PDT: 3.6

## CCN(CC)c1ccc2nc3c(cc(NCCCNC)c4nc(C)ccc43)[s+]c2c1 [Compound 22, 9-(diethylamino)-3-methyl-5-(3-(methylamino)propylamino) pyrido[3,2-a]phenothiazin-7-ium chloride]
HT29 cell line
  Ratio of DK/PDT: 18.6
A549 cell line
  Ratio of DK/PDT: 1.7

## CCCNc1c(I)c2[s+]c3cc(N(CC)CC)ccc3nc2c2ccc(C)nc12 [Compound 23, 9-(diethylamino)-6-iodo-3-methyl-5-(propylamino)pyrido[3,2-a]phenothiazin-7-ium chloride]
HT29 cell line
  Ratio of DK/PDT: 28.2
A549 cell line
  Ratio of DK/PDT: 4.9

## CCCCN(CCCC)c1ccc2nc3c(cc(NCCC)c4nc(C)ccc43)[s+]c2c1 [Compound 24, 9-(dibutylamino)-3-methyl-5-(propylamino)pyrido[3,2-a]phenothiazin-7-ium chloride]
HT29 cell line
  Ratio of DK/PDT: 11.4
A549 cell line
  Ratio of DK/PDT: 8.5
